Measured values: article PMC9820991, “Elucidating the Interaction between Pyridoxine 5′-Phosphate Oxidase and Dopa Decarboxylase: Activation of B6-Dependent Enzyme” (International Journal of Molecular Sciences, 2022)
These are yes or no findings as the source states them, for the method shown.

Legend:
Test in all cases: SPR; Biacore T200, 25 °C; apoDDC, holoDDC and holoSHMT immobilised on a CM5 chip by amine coupling; analytes PNPO and albumin 100 to 1.5625 µM in PBS-P (10 mM phosphate pH 7.4, 140 mM NaCl, 3 mM KCl, 0.05% P20), 50 µL/min; both purified
[1] = target: T1, serine hydroxymethyltransferase (rabbit cytoplasmic), holo form (rabbit) (UniProt P07511)
T1 sequence (chain, PLP cofactor (holo form), residue not stated): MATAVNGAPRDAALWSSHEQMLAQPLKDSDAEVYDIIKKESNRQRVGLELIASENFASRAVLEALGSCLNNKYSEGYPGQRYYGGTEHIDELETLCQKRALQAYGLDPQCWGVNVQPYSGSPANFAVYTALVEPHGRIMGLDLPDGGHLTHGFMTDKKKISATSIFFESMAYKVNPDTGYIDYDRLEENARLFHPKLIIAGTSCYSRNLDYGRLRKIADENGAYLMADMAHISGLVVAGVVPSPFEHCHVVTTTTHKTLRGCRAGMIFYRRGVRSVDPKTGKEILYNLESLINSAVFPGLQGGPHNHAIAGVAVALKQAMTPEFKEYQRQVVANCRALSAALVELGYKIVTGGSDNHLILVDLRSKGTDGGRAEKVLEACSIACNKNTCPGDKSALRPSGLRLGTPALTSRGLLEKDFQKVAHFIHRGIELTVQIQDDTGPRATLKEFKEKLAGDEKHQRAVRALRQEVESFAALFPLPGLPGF

[2] = target: T2, human dopa decarboxylase, holo form (human, UniProt P20711 1-480, PLP as internal aldimine on Lys303)
T2 construct: also called holoDDC; DDC; source: E. coli BL21(DE3)pLysS, purified (Histrap Ni2+ column, dialysis against PLP); not shown: His tag (from the Histrap column)
T2 sequence (looked up): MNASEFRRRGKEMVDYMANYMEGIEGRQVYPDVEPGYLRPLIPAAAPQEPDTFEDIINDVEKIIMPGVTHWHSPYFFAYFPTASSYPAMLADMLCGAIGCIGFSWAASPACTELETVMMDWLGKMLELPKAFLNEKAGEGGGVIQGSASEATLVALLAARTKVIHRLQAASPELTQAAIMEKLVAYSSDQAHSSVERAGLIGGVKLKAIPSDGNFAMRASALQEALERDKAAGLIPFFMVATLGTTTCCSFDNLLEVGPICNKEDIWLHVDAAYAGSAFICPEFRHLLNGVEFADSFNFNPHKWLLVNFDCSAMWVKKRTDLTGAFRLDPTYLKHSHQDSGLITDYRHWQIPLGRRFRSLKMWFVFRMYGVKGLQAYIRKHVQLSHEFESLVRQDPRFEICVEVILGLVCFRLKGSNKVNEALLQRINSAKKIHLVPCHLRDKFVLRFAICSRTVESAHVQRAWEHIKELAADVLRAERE

[3] = target: T3, human dopa decarboxylase, apo form (human, UniProt P20711 1-480)
T3 construct: same chain as m2 without PLP; Made from holoDDC by removal of the cofactor; also called apoDDC; source: E. coli BL21(DE3)pLysS, purified (Histrap Ni2+ column); PLP removed with 5 mM hydroxylamine and dialysis; not shown: His tag (from the Histrap column)
T3 sequence (looked up): T2 sequence (looked up)

- binding [1]: no binding (tested: 100 μM)
- binding [2]: no binding (tested: 100 μM)
- binding [3]: no binding (tested: 100 μM)
Substance: albumin
